This is one part of the list.
These sequences were tested against T1, OsSMF1 (Oryza sativa, UniProt Q6ZLB0 1-436) (assay: protein-binding microarray (RPBM); PBS, 2% BSA, 51.3 ng/ul salmon testes DNA, 50 uM zinc acetate, 200 nM TF, 25 C, 1 h; high values mean tight binding). Details: protein: recombinant; tags: N-terminal polyhistidine and DsRed monomer fusion (pET32a); chain copies: 2; label: CyDye5-dUTP incorporated in the synthesized complementary strand; 3' TTTTT single-stranded linker to array surface; dsDNA, one strand shown.
T1 sequence: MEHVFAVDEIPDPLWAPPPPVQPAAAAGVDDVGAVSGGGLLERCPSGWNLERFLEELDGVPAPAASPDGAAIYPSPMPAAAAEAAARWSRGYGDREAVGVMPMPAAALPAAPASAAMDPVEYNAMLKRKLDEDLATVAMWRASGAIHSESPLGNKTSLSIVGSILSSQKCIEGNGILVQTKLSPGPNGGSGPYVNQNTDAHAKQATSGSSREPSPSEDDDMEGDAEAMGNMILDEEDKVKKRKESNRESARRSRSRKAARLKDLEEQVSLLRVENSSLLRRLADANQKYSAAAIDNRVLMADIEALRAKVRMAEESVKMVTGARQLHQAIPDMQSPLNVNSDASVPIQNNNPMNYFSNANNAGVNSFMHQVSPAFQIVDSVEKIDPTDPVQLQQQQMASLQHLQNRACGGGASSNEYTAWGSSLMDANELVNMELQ
How it was run: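 The binding signal for each feature is its fluorescence intensity in arbitrary units. An Axon 4000B scanner was used to read a custom Agilent array that had been made double-stranded with Cy5-dUTP primer extension, blocked with 2% BSA, incubated at 25 °C for 1 h with 200 nM protein in PBS, 2% BSA, salmon testes DNA and 50 µM zinc acetate, and washed. The protein was an N-terminal polyhistidine–DsRed transcription factor fusion from E. coli BL21-CodonPlus, purified on Ni–NTA.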

Sequence	binding signal
AGTGCATGCCACGTTGTTTGTGCACCGTGTCTCAGAGCTGCGGAGTCACCTAGTGCAG	10300 fluorescence intensity (a.u.)
CACTACCGGATCCGTGGCCACTATGCGTGGGGAGGGCGGTCGGAGTCACCTAGTGCAG	3720 fluorescence intensity (a.u.)
ACACGTTCAAAATGAACGTGCTCTTCTGGACACGTGGCATCGGAGTCACCTAGTGCAG	22700 fluorescence intensity (a.u.)
GCGGAGGCCGCCGGCTGACGTGGCTCCCAACGGCCGGGAGCGGAGTCACCTAGTGCAG	21200 fluorescence intensity (a.u.)
ATTAAAATAATATCCTAGTTATAACTTTCCAACCTATACACGGAGTCACCTAGTGCAG	27200 fluorescence intensity (a.u.)
CTGAAGCAGCTGTGACGAACAGCTTGTTGCATTTCCTGCTCGGAGTCACCTAGTGCAG	4400 fluorescence intensity (a.u.)
ACGACGTGCCCGCGATGACGACGTCTTCCTGTCCACGTCGCGGAGTCACCTAGTGCAG	4210 fluorescence intensity (a.u.)
AAGTTTTCCTAGAACTGTATAGGCATGCACTAGTTTGCAACGGAGTCACCTAGTGCAG	34700 fluorescence intensity (a.u.)
TTCGTCCTTTAATTGCTTTCCTGTTGCCAGCTTGCTTTATCGGAGTCACCTAGTGCAG	3460 fluorescence intensity (a.u.)
TCTGCTTTCATTTGTGTTCATTATTGATATCTTTTGAACCCGGAGTCACCTAGTGCAG	25300 fluorescence intensity (a.u.)
AGGAGCAGCAACCCAACACAGTACCGCGCGACACTGTAGCCGGAGTCACCTAGTGCAG	5390 fluorescence intensity (a.u.)
AATGTTCTCCGGTGACACTAAATTATATTTGTTATGTTGGCGGAGTCACCTAGTGCAG	3400 fluorescence intensity (a.u.)
TGATCTCTGACCTGTGATCTGTCAGATGGACTGAAACCTACGGAGTCACCTAGTGCAG	4110 fluorescence intensity (a.u.)
CGTGTGCCTCCAACCTCGCGGCACACGTGACACAGACGCTCGGAGTCACCTAGTGCAG	3220 fluorescence intensity (a.u.)
AATCTGTTGACTGGTTACATCATCAGTAAGTGGTAGGAAACGGAGTCACCTAGTGCAG	3200 fluorescence intensity (a.u.)
CACTAGTGTGAGTGCCGGCTTCCCTGACATCGAATAGCATCGGAGTCACCTAGTGCAG	3170 fluorescence intensity (a.u.)
ATAACAGCTCATGTCAATGCTCTACTCATCATTGGTGGAGCGGAGTCACCTAGTGCAG	3200 fluorescence intensity (a.u.)
CTGCCTCCTCCTTCTGTGATCACTTCTTGCAAACCAATCGCGGAGTCACCTAGTGCAG	4080 fluorescence intensity (a.u.)
AGGCAATCTCTCATCTCATGACTAGACTTTGACAAGTTGTCGGAGTCACCTAGTGCAG	5570 fluorescence intensity (a.u.)
TTGGTTTGAGGCCTAAATTAGACTTATCAATATTTGACAACGGAGTCACCTAGTGCAG	38600 fluorescence intensity (a.u.)
TCCTCTCCCTCCTCCCCACTTCAAGATTTTCACCAACCTTCGGAGTCACCTAGTGCAG	4060 fluorescence intensity (a.u.)

Sequence	binding signal
GCGTCAGAAGGTTGCAACGCCTATATTGCCACACCAGCCGCGGAGTCACCTAGTGCAG	3610 fluorescence intensity (a.u.)
GCGTACGTACGCGTCAGCTCTCTCTCTCTCTCTCTCTCCTCGGAGTCACCTAGTGCAG	15700 fluorescence intensity (a.u.)
CCAGGACATAATGCAAACTACGTGACTTTCTGAAGTATTACGGAGTCACCTAGTGCAG	14400 fluorescence intensity (a.u.)
GCTGATGGAGTTGCTACCACCGCTTCTATCGCCACGTGTCCGGAGTCACCTAGTGCAG	18100 fluorescence intensity (a.u.)
TCGGTTTCCATGGCAGCGTTGCACGGTTGTACCGTGGCGTCGGAGTCACCTAGTGCAG	3490 fluorescence intensity (a.u.)
GTCAGTGACAGTGTGACACAGACGTTCTCTGCTTCCACCTCGGAGTCACCTAGTGCAG	5580 fluorescence intensity (a.u.)
ATCCGACGCGGGCGCTCGGTGACGGTGAGGCCACTTAGCTCGGAGTCACCTAGTGCAG	4360 fluorescence intensity (a.u.)
AGTTTGGTTGTAATCCTCCTAATCTTAATCGAATTGCTTCCGGAGTCACCTAGTGCAG	17500 fluorescence intensity (a.u.)
CATATTATCCCTGCCAATAAATAAATAAATAAAATTGAGCCGGAGTCACCTAGTGCAG	24700 fluorescence intensity (a.u.)
TAGTGGTGATGCTAATTGTGAGAAGGTGCCAGGTGGTTTGCGGAGTCACCTAGTGCAG	3810 fluorescence intensity (a.u.)
CCACTGCACTGCACTGCCAATGACAGCTCTCGCGCGAGGCCGGAGTCACCTAGTGCAG	3410 fluorescence intensity (a.u.)
CCGTTACACCACCCGCCTCACGCCGTCACGTCAACTTCCGCGGAGTCACCTAGTGCAG	4490 fluorescence intensity (a.u.)
TATATGGGTACCACACTTGACTCAGCTACCACGTCAGCTCCGGAGTCACCTAGTGCAG	29300 fluorescence intensity (a.u.)
AACGCGACCCCGTCGGCGACGGCGGACGGCGCGTGGTCGTCGGAGTCACCTAGTGCAG	26400 fluorescence intensity (a.u.)
TGCAAACCTGGGTTTGTACACGTACTGACCACGGGTGCAGCGGAGTCACCTAGTGCAG	7770 fluorescence intensity (a.u.)
GCGAATGCGTCCAAGGCGGAGGCGACAACGAGCAGCAAACCGGAGTCACCTAGTGCAG	3200 fluorescence intensity (a.u.)
CCTCCTCCCCACCAGCCGGCCTGCCACGCCCAGCCCCTCCCGGAGTCACCTAGTGCAG	3840 fluorescence intensity (a.u.)
TACAACACACAGTGACAATGCAGTGCAGAAGATAAAACGGCGGAGTCACCTAGTGCAG	3560 fluorescence intensity (a.u.)
CCTTAGCTTGTCAGAAGACCCCGTGGGACGGCTCGCAGATCGGAGTCACCTAGTGCAG	3390 fluorescence intensity (a.u.)
AACGATTGCATGTCTGTTCGCTAGGGACGCTACACGTACGCGGAGTCACCTAGTGCAG	3240 fluorescence intensity (a.u.)
GGTGAAACAACACGTGGAACTGGAACCTGCCATGTTTTGTCGGAGTCACCTAGTGCAG	11000 fluorescence intensity (a.u.)

Rewritten in markdown: part of the list above.

| Sequence | binding signal |
| --- | --- |
| GCTGATGGAGTTGCTACCACCGCTTCTATCGCCACGTGTCCGGAGTCACCTAGTGCAG | 18100 fluorescence intensity (a.u.) |
| TCGGTTTCCATGGCAGCGTTGCACGGTTGTACCGTGGCGTCGGAGTCACCTAGTGCAG | 3490 fluorescence intensity (a.u.) |
| GTCAGTGACAGTGTGACACAGACGTTCTCTGCTTCCACCTCGGAGTCACCTAGTGCAG | 5580 fluorescence intensity (a.u.) |
| ATCCGACGCGGGCGCTCGGTGACGGTGAGGCCACTTAGCTCGGAGTCACCTAGTGCAG | 4360 fluorescence intensity (a.u.) |
| AGTTTGGTTGTAATCCTCCTAATCTTAATCGAATTGCTTCCGGAGTCACCTAGTGCAG | 17500 fluorescence intensity (a.u.) |
| CATATTATCCCTGCCAATAAATAAATAAATAAAATTGAGCCGGAGTCACCTAGTGCAG | 24700 fluorescence intensity (a.u.) |
| TAGTGGTGATGCTAATTGTGAGAAGGTGCCAGGTGGTTTGCGGAGTCACCTAGTGCAG | 3810 fluorescence intensity (a.u.) |
| CCACTGCACTGCACTGCCAATGACAGCTCTCGCGCGAGGCCGGAGTCACCTAGTGCAG | 3410 fluorescence intensity (a.u.) |
| CCGTTACACCACCCGCCTCACGCCGTCACGTCAACTTCCGCGGAGTCACCTAGTGCAG | 4490 fluorescence intensity (a.u.) |
| TATATGGGTACCACACTTGACTCAGCTACCACGTCAGCTCCGGAGTCACCTAGTGCAG | 29300 fluorescence intensity (a.u.) |

Reference: PMC7819943, “Rice protein-binding microarrays: a tool to detect cis-acting elements near promoter regions in rice”
